Source: PMC11404382

Target: V5-tagged C16orf62 (pQCXIP-C16orf62-V5)
Assay: co-IP; lysate supernatants containing APN-HA and C16orf62-V5 mixed for 4 h at 4°C, then mouse anti-V5 mAb overnight, then protein A/G beads for 4 h; washed five times; Western blot (anti-APN mAb)

B1: HA-tagged APN (pQCXIP-APN-HA) (receptor, UniProt P15145 1-963)
chain: MAKGFYISKALGILGILLGVAAVATIIALSVVYAQEKNKNAEHVPQAPTSPTITTTAAITLDQSKPWNRYRLPTTLLPDSYNVTLRPYLTPNADGLYIFKGKSIVRLLCQEPTDVIIIHSKKLNYTTQGHMVVLRGVGDSQVPEIDRTELVELTEYLVVHLKGSLQPGHMYEMESEFQGELADDLAGFYRSEYMEGNVKKVLATTQMQSTDARKSFPCFDEPAMKATFNITLIHPNNLTALSNMPPKGSSTPLAEDPNWSVTEFETTPVMSTYLLAYIVSEFQSVNETAQNGVLIRIWARPNAIAEGHGMYALNVTGPILNFFANHYNTSYPLPKSDQIALPDFNAGAMENWGLVTYRENALLFDPQSSSISNKERVVTVIAHELAHQWFGNLVTLAWWNDLWLNEGFASYVEYLGADHAEPTWNLKDLIVPGDVYRVMAVDALASSHPLTTPAEEVNTPAQISEMFDSISYSKGASVIRMLSNFLTEDLFKEGLASYLHAFAYQNTTYLDLWEHLQKAVDAQTSIRLPDTVRAIMDRWTLQMGFPVITVDTKTGNISQKHFLLDSESNVTRSSAFDYLWIVPISSIKNGVMQDHYWLRDVSQAQNDLFKTASDDWVLLNVNVTGYFQVNYDEDNWRMIQHQLQTNLSVIPVINRAQVIYDSFNLATAHMVPVTLALDNTLFLNGEKEYMPWQAALSSLSYFSLMFDRSEVYGPMKKYLRKQVEPLFQHFETLTKNWTERPENLMDQYSEINAISTACSNGLPQCENLAKTLFDQWMSDPENNPIHPNLRSTIYCNAIAQGGQDQWDFAWGQLQQAQLVNEADKLRSALACSNEVWLLNRYLGYTLNPDLIRKQDATSTINSIASNVIGQPLAWDFVQSNWKKLFQDYGGGSFSFSNLIQGVTRRFSSEFELQQLEQFKKNNMDVGFGSGTRALEQALEKTKANIKWVKENKEVVLNWFIEHS
- binding: binds

No constants are given. Whether binding was seen depends on the method and setting. In cells and extracts the contact can be indirect. Binding calls can cover weak binding; strength is not graded here. Where a sequence is shown, tags or fusion partners need not be part of it.
